Data as given in PubChem BioAssay AID1224830 (NIAID, 2016)
The deposit covers about 18,000 reagents; below is a random part of them. About 2,900 of all reagents (16%) count as active. 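Calls are made per well; low scores hint the gene aids the LPS response, high scores that it dampens it.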 A number with no mark means an inactive call. Repeated entries: four replicate wells of each siRNA pool.

Purpose: 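Host factors that control LPS-induced TNF expression in human macrophages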 (primary screen)
System: human THP-1 monocytic leukaemia cells, TNF dual-luciferase reporter clone, PMA-differentiated to macrophage-like cells
Reagents: siRNA pool against human genes, 50 nM
Timing: LPS for 4 h, given about 3 days after siRNA transfection
Challenge: bacterial LPS (TLR4 ligand), 10 ng/ml
Read-out: 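Ratio of firefly to renilla light, scaled to the plate median and expressed as a robust z-score per replicate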
Scale: TNF reporter robust z-score: higher = stronger TNF reporter response to LPS
Call rule: 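Each well counts as active if its z-score is over 2.8 or under -1.5; controls are left without a call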

gene symbol,TNF reporter robust z-score
RXFP4 (relaxin family peptide/INSL5 receptor 4),-0.33
RXFP4 (relaxin family peptide/INSL5 receptor 4),1.26
RXFP4 (relaxin family peptide/INSL5 receptor 4),0.29
RXFP4 (relaxin family peptide/INSL5 receptor 4),1.95
GFPT2 (glutamine--fructose-6-phosphate transaminase 2),1.2
GFPT2 (glutamine--fructose-6-phosphate transaminase 2),0.42
GFPT2 (glutamine--fructose-6-phosphate transaminase 2),1.1
GFPT2 (glutamine--fructose-6-phosphate transaminase 2),-0.21
"PSMD10 (proteasome 26S subunit, non-ATPase 10)",0.09
"PSMD10 (proteasome 26S subunit, non-ATPase 10)",-0.14
"PSMD10 (proteasome 26S subunit, non-ATPase 10)",-0.06
"PSMD10 (proteasome 26S subunit, non-ATPase 10)",1.26
SMC6 (structural maintenance of chromosomes 6),1.42
SMC6 (structural maintenance of chromosomes 6),1.3
SMC6 (structural maintenance of chromosomes 6),0.28
SMC6 (structural maintenance of chromosomes 6),0.6
TRIML1 (tripartite motif family like 1),-0.34
TRIML1 (tripartite motif family like 1),-0.21
TRIML1 (tripartite motif family like 1),1.42
PIGK (phosphatidylinositol glycan anchor biosynthesis class K),-0.45
PIGK (phosphatidylinositol glycan anchor biosynthesis class K),-0.41
PIGK (phosphatidylinositol glycan anchor biosynthesis class K),-0.93
PIGK (phosphatidylinositol glycan anchor biosynthesis class K),0.44
MMP21 (matrix metallopeptidase 21),-0.35
MMP21 (matrix metallopeptidase 21),0.6
MMP21 (matrix metallopeptidase 21),-1.43
MMP21 (matrix metallopeptidase 21),-0.09
SLC35A5,0
SLC35A5,-1.66 (active)
SLC35A5,0.96
SLC35A5,1.4
GZF1 (GDNF inducible zinc finger protein 1),-1.05
GZF1 (GDNF inducible zinc finger protein 1),-0.76
GZF1 (GDNF inducible zinc finger protein 1),-0.66
GZF1 (GDNF inducible zinc finger protein 1),-1.25
UBD (ubiquitin like modifier D),0.57
UBD (ubiquitin like modifier D),1.69
UBD (ubiquitin like modifier D),0.63
UBD (ubiquitin like modifier D),1.03
MEAK7 (MTOR associated protein MEAK7),-0.76
MEAK7 (MTOR associated protein MEAK7),-0.83
MEAK7 (MTOR associated protein MEAK7),-0.69
MEAK7 (MTOR associated protein MEAK7),0
TMBIM4 (transmembrane BAX inhibitor motif containing 4),-1.38
TMBIM4 (transmembrane BAX inhibitor motif containing 4),-0.49
TMBIM4 (transmembrane BAX inhibitor motif containing 4),-0.05
TMBIM4 (transmembrane BAX inhibitor motif containing 4),0.65
PADI1 (peptidyl arginine deiminase 1),2.39
PADI1 (peptidyl arginine deiminase 1),-1.01
PADI1 (peptidyl arginine deiminase 1),-1.6 (active)
PADI1 (peptidyl arginine deiminase 1),-1.55 (active)
BTN2A2 (butyrophilin subfamily 2 member A2),-0.04
BTN2A2 (butyrophilin subfamily 2 member A2),0.71
BTN2A2 (butyrophilin subfamily 2 member A2),-0.53
BTN2A2 (butyrophilin subfamily 2 member A2),0.5

Entries above whose gene name begins with G or g (8):
gene symbol,TNF reporter robust z-score
GFPT2 (glutamine--fructose-6-phosphate transaminase 2),1.2
GFPT2 (glutamine--fructose-6-phosphate transaminase 2),0.42
GFPT2 (glutamine--fructose-6-phosphate transaminase 2),1.1
GFPT2 (glutamine--fructose-6-phosphate transaminase 2),-0.21
GZF1 (GDNF inducible zinc finger protein 1),-1.05
GZF1 (GDNF inducible zinc finger protein 1),-0.76
GZF1 (GDNF inducible zinc finger protein 1),-0.66
GZF1 (GDNF inducible zinc finger protein 1),-1.25

The results go on:
gene symbol,TNF reporter robust z-score
CT55 (cancer/testis antigen 55),-0.35
CT55 (cancer/testis antigen 55),0.38
CT55 (cancer/testis antigen 55),-0.24
CT55 (cancer/testis antigen 55),0.24
TBC1D5 (TBC1 domain family member 5),-1.38
TBC1D5 (TBC1 domain family member 5),-1.27
TBC1D5 (TBC1 domain family member 5),-1.12
TBC1D5 (TBC1 domain family member 5),-2.04 (active)
EXOC3L1 (exocyst complex component 3 like 1),1.26
EXOC3L1 (exocyst complex component 3 like 1),1.72
EXOC3L1 (exocyst complex component 3 like 1),1.96
EXOC3L1 (exocyst complex component 3 like 1),2.46
DYNLT4 (dynein light chain Tctex-type 4),0.75
DYNLT4 (dynein light chain Tctex-type 4),-0.02
DYNLT4 (dynein light chain Tctex-type 4),-1.63 (active)
DYNLT4 (dynein light chain Tctex-type 4),-0.5
GNE,1.12
GNE,-0.04
GNE,0.59
GNE,0.12
NTRK2 (neurotrophic receptor tyrosine kinase 2),0.89
NTRK2 (neurotrophic receptor tyrosine kinase 2),0.21
NTRK2 (neurotrophic receptor tyrosine kinase 2),0.77
NTRK2 (neurotrophic receptor tyrosine kinase 2),-1.1
MAP3K5 (mitogen-activated protein kinase kinase kinase 5),-0.2
MAP3K5 (mitogen-activated protein kinase kinase kinase 5),0.17
MAP3K5 (mitogen-activated protein kinase kinase kinase 5),0.09
MAP3K5 (mitogen-activated protein kinase kinase kinase 5),-0.02
PTPRC (protein tyrosine phosphatase receptor type C),-1.45
PTPRC (protein tyrosine phosphatase receptor type C),-0.93
PTPRC (protein tyrosine phosphatase receptor type C),-0.44
PTPRC (protein tyrosine phosphatase receptor type C),0.22
VMA22 (vacuolar ATPase assembly factor VMA22),0.22
VMA22 (vacuolar ATPase assembly factor VMA22),0.31
VMA22 (vacuolar ATPase assembly factor VMA22),0.1
VMA22 (vacuolar ATPase assembly factor VMA22),0.17
RBM7 (RNA binding motif protein 7),-0.64
RBM7 (RNA binding motif protein 7),-0.13
RBM7 (RNA binding motif protein 7),-0.62
RBM7 (RNA binding motif protein 7),-0.5
INSYN2A (inhibitory synaptic factor 2A),0.99
INSYN2A (inhibitory synaptic factor 2A),1.49
INSYN2A (inhibitory synaptic factor 2A),0.62
INSYN2A (inhibitory synaptic factor 2A),1.33
PRPF19 (pre-mRNA processing factor 19),0.46
PRPF19 (pre-mRNA processing factor 19),-1.19
PRPF19 (pre-mRNA processing factor 19),-0.78
ARHGAP11B (Rho GTPase activating protein 11B),1.14
ARHGAP11B (Rho GTPase activating protein 11B),1.84
ARHGAP11B (Rho GTPase activating protein 11B),1.58
ARHGAP11B (Rho GTPase activating protein 11B),0.07
RASEF (RAS and EF-hand domain containing),-0.21
RASEF (RAS and EF-hand domain containing),0.07
RASEF (RAS and EF-hand domain containing),-0.04
RASEF (RAS and EF-hand domain containing),-0.32
